# Screening data, single-dose tests

The chains behind the UniProt entries cited, without tags or fusion partners. Residues count along the entry.
UniProt P9WNZ1, whole entry: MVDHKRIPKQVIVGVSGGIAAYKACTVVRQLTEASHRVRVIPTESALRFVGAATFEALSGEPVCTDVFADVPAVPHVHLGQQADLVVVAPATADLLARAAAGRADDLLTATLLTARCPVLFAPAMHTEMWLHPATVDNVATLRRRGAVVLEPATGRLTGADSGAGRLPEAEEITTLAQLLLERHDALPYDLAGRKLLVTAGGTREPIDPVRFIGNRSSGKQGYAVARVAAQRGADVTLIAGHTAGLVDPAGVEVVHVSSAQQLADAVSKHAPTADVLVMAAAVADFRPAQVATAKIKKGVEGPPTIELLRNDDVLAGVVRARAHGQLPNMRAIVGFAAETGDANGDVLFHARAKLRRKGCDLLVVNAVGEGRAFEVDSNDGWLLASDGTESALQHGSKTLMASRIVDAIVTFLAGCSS
UniProt I6X8D2, whole entry: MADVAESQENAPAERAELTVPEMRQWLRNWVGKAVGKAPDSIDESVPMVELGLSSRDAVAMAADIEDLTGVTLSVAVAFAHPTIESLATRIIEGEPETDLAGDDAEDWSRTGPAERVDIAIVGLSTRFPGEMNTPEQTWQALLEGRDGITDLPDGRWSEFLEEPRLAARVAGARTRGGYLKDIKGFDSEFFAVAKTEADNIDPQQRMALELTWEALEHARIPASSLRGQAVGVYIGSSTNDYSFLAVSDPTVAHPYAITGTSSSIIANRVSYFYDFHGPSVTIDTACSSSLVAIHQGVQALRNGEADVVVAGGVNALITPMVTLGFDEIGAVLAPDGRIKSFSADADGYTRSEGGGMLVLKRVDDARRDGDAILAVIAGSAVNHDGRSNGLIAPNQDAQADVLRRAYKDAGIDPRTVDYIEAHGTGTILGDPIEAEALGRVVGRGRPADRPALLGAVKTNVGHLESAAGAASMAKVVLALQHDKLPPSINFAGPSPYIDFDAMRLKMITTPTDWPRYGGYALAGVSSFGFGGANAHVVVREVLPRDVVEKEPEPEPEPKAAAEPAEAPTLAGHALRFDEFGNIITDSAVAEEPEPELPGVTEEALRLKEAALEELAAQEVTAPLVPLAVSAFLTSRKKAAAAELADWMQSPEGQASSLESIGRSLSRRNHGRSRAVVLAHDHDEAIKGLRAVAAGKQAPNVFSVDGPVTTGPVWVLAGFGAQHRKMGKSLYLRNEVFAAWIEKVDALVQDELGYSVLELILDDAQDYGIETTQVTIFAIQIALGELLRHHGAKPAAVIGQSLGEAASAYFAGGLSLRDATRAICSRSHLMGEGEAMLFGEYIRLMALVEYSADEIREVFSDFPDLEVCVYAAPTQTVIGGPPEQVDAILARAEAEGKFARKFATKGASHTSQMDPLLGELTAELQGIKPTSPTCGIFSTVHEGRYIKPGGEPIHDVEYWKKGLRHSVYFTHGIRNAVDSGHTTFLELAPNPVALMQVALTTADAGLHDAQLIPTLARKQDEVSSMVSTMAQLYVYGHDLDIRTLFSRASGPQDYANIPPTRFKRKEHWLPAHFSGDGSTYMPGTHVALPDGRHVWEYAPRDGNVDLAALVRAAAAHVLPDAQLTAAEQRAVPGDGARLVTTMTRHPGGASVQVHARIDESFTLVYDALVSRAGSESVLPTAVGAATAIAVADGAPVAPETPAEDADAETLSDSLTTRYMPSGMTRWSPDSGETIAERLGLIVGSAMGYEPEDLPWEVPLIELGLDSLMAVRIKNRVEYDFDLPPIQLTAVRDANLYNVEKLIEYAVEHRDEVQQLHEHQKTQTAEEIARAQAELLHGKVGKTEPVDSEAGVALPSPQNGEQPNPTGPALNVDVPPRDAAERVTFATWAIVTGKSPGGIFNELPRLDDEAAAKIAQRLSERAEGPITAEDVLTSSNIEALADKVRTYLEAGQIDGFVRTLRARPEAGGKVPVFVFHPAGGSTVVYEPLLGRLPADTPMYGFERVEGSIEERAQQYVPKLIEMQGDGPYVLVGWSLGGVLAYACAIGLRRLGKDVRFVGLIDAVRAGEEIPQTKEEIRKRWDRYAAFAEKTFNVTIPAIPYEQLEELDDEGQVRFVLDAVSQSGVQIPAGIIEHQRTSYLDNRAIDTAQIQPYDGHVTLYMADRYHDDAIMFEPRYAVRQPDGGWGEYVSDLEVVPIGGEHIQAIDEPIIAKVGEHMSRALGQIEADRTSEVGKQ
UniProt P9WPC5, whole entry: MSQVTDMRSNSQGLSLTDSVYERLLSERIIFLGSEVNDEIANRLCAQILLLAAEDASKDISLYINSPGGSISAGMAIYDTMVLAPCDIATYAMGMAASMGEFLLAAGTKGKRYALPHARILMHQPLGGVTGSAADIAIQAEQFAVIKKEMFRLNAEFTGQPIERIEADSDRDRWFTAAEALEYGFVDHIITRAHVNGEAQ
UniProt P9WPC3, whole entry partner: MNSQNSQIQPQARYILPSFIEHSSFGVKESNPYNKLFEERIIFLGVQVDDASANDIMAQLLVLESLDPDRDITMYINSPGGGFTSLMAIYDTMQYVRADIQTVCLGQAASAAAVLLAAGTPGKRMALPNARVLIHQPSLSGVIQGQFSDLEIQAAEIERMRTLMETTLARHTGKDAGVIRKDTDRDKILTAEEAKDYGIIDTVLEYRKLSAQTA
UniProt Q4DA54, 1-478: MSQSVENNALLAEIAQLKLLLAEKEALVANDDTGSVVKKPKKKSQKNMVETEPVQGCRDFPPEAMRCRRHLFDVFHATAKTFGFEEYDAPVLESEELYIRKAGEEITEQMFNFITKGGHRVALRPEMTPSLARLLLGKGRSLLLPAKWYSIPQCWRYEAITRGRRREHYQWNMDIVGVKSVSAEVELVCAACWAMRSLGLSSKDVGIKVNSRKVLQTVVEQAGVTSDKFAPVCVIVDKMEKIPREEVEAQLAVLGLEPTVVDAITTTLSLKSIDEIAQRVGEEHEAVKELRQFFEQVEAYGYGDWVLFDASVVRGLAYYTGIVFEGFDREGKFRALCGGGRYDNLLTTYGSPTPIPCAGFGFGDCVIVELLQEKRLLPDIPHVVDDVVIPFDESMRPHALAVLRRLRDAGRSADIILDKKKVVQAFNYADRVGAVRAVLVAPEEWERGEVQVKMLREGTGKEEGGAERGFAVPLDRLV

Source: ChEMBL document CHEMBL3988442, “University of Dundee, Small-Polar-MMV Screening Library” (2021).

CoaBC: 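Enzyme assay of CoaBC with a phosphate dye (Biomol Green) read at 650 nm. Target: Coenzyme A biosynthesis protein CoaBC, Mycobacterium tuberculosis (UniProt P9WNZ1). Tested at 30 µM. Direction is inferred from only a few compounds that gave an IC50; most scored high, so higher reads as stronger inhibition. Most strong results did not repeat in a second test. About 67,000 compounds were tested under these conditions; 0.06% (about 40) showed 50% or more at least once.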
Leishmania in macrophages: 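Cell assay of Leishmania donovani living inside macrophages; the read-out is not stated. Compounds at 30 µM. Higher reads as stronger inhibition (inferred: compounds with an IC50 in retests scored well above the rest). About 69,000 compounds were tested under these conditions; 1.5% (about 1,000) showed 50% or more at least once.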
Pks13 thioesterase: 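Polyketide synthase Pks13, Mycobacterium tuberculosis (UniProt I6X8D2). Enzyme assay of the thioesterase domain of polyketide synthase 13; the read-out is not stated. Tested at 30 µM. The record gives no direction; the compounds picked for IC50 retests had high values, so higher reads as stronger inhibition. Of about 67,000 compounds tested this way, about 300 (0.46%) reached 50% or more in at least one test.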
ClpP1P2: 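Protease assay of ClpP1P2, read by the AMC dye that it sets free. Target: ClpP1P2, Mycobacterium tuberculosis (UniProt P9WPC5 and UniProt P9WPC3). Concentration: 50 µM. Higher reads as stronger inhibition, judged from the few compounds that gave an IC50. Most other retested compounds had strongly negative values. Size under these conditions: about 69,000 compounds, about 10 of them at 50% or above in at least one test.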
TcHisRS: 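Histidine-tRNA ligase, Trypanosoma cruzi CL Brener (UniProt Q4DA54). Enzyme assay of histidyl-tRNA synthetase; the read-out is not stated. Concentration: 30 µM. Higher reads as stronger inhibition (inferred: compounds with an IC50 in retests scored well above the rest). About 69,000 compounds were tested under these conditions; 0.045% (about 31) showed 50% or more at least once.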

Results are given as percent effect. The record does not define 0% and 100%; most values in the screen are far below 50% and negative numbers occur (in some assays of this library far below -100). The compounds are a random part of those screened. Two or more numbers in one place are separate tests of the same structure; such repeats can differ widely. A dash means the value is not listed here; it may have been measured.

compound | CoaBC | Leishmania in macrophages | Pks13 thioesterase | ClpP1P2 | TcHisRS
Cc1cc2nc(CO[C@H]3CN(CC4CC4)C[C@H]3F)[nH]c2cc1C | 3.34% | 26.32% | -26.17% | -8.072% | 3.483%
CN1C(=O)CC2(CCNCC2)c2ccccc21 | - | 25.05% | -26.63% | 5.219% | 3.797%
CCCC1CCCN(C(=O)CNC(=O)c2ccoc2C)CC1 (stereo not drawn) | 6.992% | 15.52% | -12.47% | 14.15% | 1.961%
COCC(=O)NC[C@@]1(COc2cnccn2)C[C@@H](O)[C@@H](O)C1.Cl | - | 25.29% | - | - | -
CN1CCc2c(C#N)c(NCC3CCCO3)n3cnnc3c2C1 (stereo not drawn) | 0% | - | 0.6471% | -1.299% | 4.878%
Cc1nn(-c2ccccc2)c(C)c1-c1ccnc(N2CCC(O)CC2)n1 | 5.967% | 17.93% | -25.79% | -10.12% | -0.5236%
O=C(NCc1sc2ccccc2c1Cl)c1cc2n(n1)CCNC2 | 12.92% | 46.11% | -10.74% | -7.568% | 6.468%
Cc1cc(C(=O)NCCN2CCC(C)CC2)nn1C(C)(C)C | 6.399% | -49.52% | -8.502% | -11.08% | 0.4975%
O=C(c1ccc(Cl)cc1)N1CCC(N2CCCOC2=O)CC1 | 3.421% | 19.23% | -16.01% | 17.31% | 1.775%
CN1CCCC1c1ccnc(-c2ccccn2)n1 (stereo not drawn) | 3.563% | -6.717% | -3.086% | -6.759% | 6.154%
Cc1ccsc1-c1cc(C(=O)O)cc(S(=O)(=O)NCc2ccccn2)c1 | -3.2% | 21.94% | -32.68% | 3.901% | 9.195%
[H][C@@]12CCN(C(=O)c3cnn(C)c3)[C@@]1([H])CCN2c1cccc(C)n1 | - | 23% | - | - | -
CN(C)[C@@H]1CCN(c2ncc(F)cn2)[C@H]1Cc1ccccc1 | -21.61% | - | -12.33% | -14.14% | 5.473%
O=C(O)C(F)(F)F.[H][C@]12CCN(C(=O)C3CCOC3)[C@@]1([H])CCC(=O)N2Cc1ccncc1 (stereo partly drawn) | - | 24.67% | - | - | -
Cc1ccc(-c2cc(N)c(=O)n(CC(=O)NCC3CC3)n2)s1 | -5.833% | 29.16% | -62.61% | -2.33% | 1.622%
CC(=O)N1CC2(CCN(C(=O)N(C)C)CC2)c2cc(C)ccc21 | -0.2037% | -25.03% | - | 1.55% | 5.747%
O=C(c1nc(=O)[nH]c2ccccc12)N1CCCC2(CCNC2)C1 (stereo not drawn) | -0.1229% | 35.5% | 7.974% | -73.45% | 8.333%
c1cc(CN2CCOCC3(C2)CN(Cc2nccs2)CCO3)ccn1 (stereo not drawn) | -2.737% | - | 22.13% | 15.2% | 2.151%
NC(=O)C1CCN(CCc2ccc(NCc3cscn3)cc2)CC1 | 0.3241% | 11.38% | -15.02% | 2.691% | -2.02%
Cc1ccc2[nH]c([C@H]3CCN(CC4CCCCC4)C3)nc2c1 | -15.58% | 6.318% | -5.685% | 8.162% | 0%
CCCSCC(=O)N1C[C@@H](NC(C)=O)[C@H](c2ccc(OC)cc2)C1 | 14.16% | 15.46% | -35.6% | 6.504% | -1.093%
CC(NC(=O)NCCCN(C)S(C)(=O)=O)c1cccnc1 (stereo not drawn) | 6.489% | 28.3% | -20.79% | 10.05% | 5.07%
NC(=O)C1(Cc2ccccc2-c2cncnc2)CCCNC1 (stereo not drawn) | -19.13% | 29.56% | -5.481% | -17.18% | 2.825%
COc1ccc2c(ccn2CC(=O)Nc2n[nH]c(C(C)C)n2)c1 | -0.6075% | 48.42% | -9.965% | 3.713% | 9.901%
CN(C)[C@@H]1CCN(c2ncccn2)[C@H]1Cc1ccccc1 | -5.909% | 29.6% | -15.11% | -13.33% | -1.674%
CCn1cc(Cl)c(C(=O)Nc2ccc3c(c2)C(C)(C)C(=O)N3C)n1 | 2.658% | -55.12% | -11.03% | -23.18% | 4.969%
Cc1ccnc(OC[C@]23COC[C@H]2CN(C(=O)c2ccnn2C)C3)n1 | 9.877% | - | -7.961% | 9.303% | 6.542%
O=C(c1csc(-c2cccs2)n1)N1CCN2CCCCC2C1 (stereo not drawn) | -3.566% | -16.97% | -11.19% | 7.138% | 6.061%
COc1ccc(C)cc1C1(CNc2cncc(Cl)n2)CCOCC1 | 7.57% | 30.89% | -1.023% | -5.857% | 5.263%
COc1ccccc1C(=O)Nc1nc2c(s1)CN(S(=O)(=O)C1CC1)CC2 | 6.107% | 16.06% | -1.284% | 0.06496% | 10.84%
Cc1cc(C(=O)N2CCC3(CC2)C(=O)N(C)CCN3CC(C)C)c(C)o1.O=C(O)C(F)(F)F | - | 38.47% | - | - | -
COC(=O)c1cccc2nc([C@H]3CCN(Cc4ccccc4C)C3)oc12 | 9.627% | 25.72% | -15.18% | -10.94% | -2.488%
CN(CCC(O)c1ccccc1)Cc1nc(-c2ccccc2)no1 (stereo not drawn) | 5.583% | 21.97% | -15.57% | -6.945% | 11.36%
COC(=O)c1ccc(Cl)c(CN(C)Cc2ncnn2C)c1 | 4.481% | 13.19% | -15.45% | -3.335% | 6.878%
Cc1ccc(N2CC[C@@H]3[C@@H]2CCN3C(=O)c2cscn2)nn1 | -5.906% | - | - | 0.1709% | 2.299%
CC(C)c1cc(NC(=O)CN2CCc3ccccc3C2)on1 | 1.205% | 32.71% | -12% | 4.155% | -0.7634%
Cc1ccoc1CNCc1nnc2n1CC(C(F)(F)F)CC2 (stereo not drawn) | 1.527% | -8.061% and -29.74% | -18.38% | -6.669% | -4.819%
CCc1nc(CN2CCN(C(=O)c3cc(C)nn3C)CC2)cs1 | 0.9901% | -10.81% | -5.289% | -15.88% | 0%
O=C(Cc1ccccn1)N1CCN(CC2CC2)c2ncccc2C1 | 6.477% | 17.64% | -29.1% | -4.426% | 4.918%
[H][C@@]12CN(C(C)=O)C[C@]1(C(=O)N(C)C)CCC21CCN(S(C)(=O)=O)CC1 | - | -12.02% | - | - | -
O=C(c1cccnc1)N1CCc2c(COCC3CC3)cncc2C1 | -0.2538% | 23.56% | -17.65% | -1.49% | 2.956%
O=c1[nH]c(NCCO)nc2c1C1(CCCC1)Cc1ccccc1-2 | -0.5063% | 28.54% and -5.529% | 12.13% | -40.98% | 0%
O=C1CCC(c2nc(C3CCN(C(=O)Cc4cccs4)CC3)no2)N1 (stereo not drawn) | -1.142% | -27.88% | -6.606% | -47.02% | 3.714%
Cc1ccc2nc(C3CCN(CC4CC4)CC3)nn2c1 | -1.11% | - | 2.216% | -10.86% | 5.263%
Cn1cc(C2COC3(CCN(C(=O)c4cccc(O)c4)CC3)C2)cn1 (stereo not drawn) | 6.5% | 8.584% | -8.519% | -10.64% | 10.78%
NC(=O)C1CCN(C(=O)c2cc(-n3cnnn3)ccc2Cl)CC1 | 4.43% | 4.464% | 6.916% | -11.79% | 6.211%
COc1ccc(CN2CCC3(CCCN(C)C3=O)C2)c(Cl)c1OC (stereo not drawn) | 8.193% | -0.9036% | -17.67% | -1.249% | 6.736%
COCc1nc2ncc3c(=O)n(-c4ccc(OC)cc4)ccc3n2n1 | -0.6734% | -22.07% | 0.1365% | -11.44% | -1.01%
O=C(Nc1ccc(N2CCCCC2)nc1)N1CCc2sccc2C1 | 12.3% | 15.78% | -13.25% | 5.303% | 5.435%
c1nc2c(c(N3CCCC(Cn4cncn4)C3)n1)CCC2 (stereo not drawn) | 5.484% | 36.59% | -31.6% | -3.243% | 2.463%
CC(CNC(=O)N1CCN(c2cnccn2)CC1)Cc1cccs1 (stereo not drawn) | 2.692% | -2.218% | 12.82% | -4.621% | 3.743%
c1ccc(CN(Cc2cccc3cnccc23)CC2CCCO2)nc1 (stereo not drawn) | 6.364% | 28.14% | -19.1% | -2.291% | 3.784%
CN(Cc1ccsc1)C(=O)c1cc2c([nH]c1=O)CCC2 | 5.355% | -7.31% | 4.237% | -30.89% | 9.621%
O=C(O)C(F)(F)F.c1ccc(Cn2cc3c(n2)C(COCC2CC2)OCC3)nc1 (stereo not drawn) | - | -21.31% | - | - | -
CCCn1c(C)c(CC(=O)NC(C)CO)c2c1CC(C)(C)CC2=O (stereo not drawn) | 0.2538% | 0.1702% | -38.23% | -9.042% | 7.623%
CN(Cc1nnc2ccccn12)C(=O)CCC1CCCC1 | - | -17.81% | 2.799% | 3.905% | 9.554%
CC(C(=O)Nc1ccc(N2CCCCC2)nc1)n1cncn1 (stereo not drawn) | 21.49% and -11.86% | 4.772% | -22.81% | -0.8745% | 2.326%
Cc1ccc(CN2CCN(c3cc(NCCO)ncn3)CC2CCO)o1 (stereo not drawn) | 2.581% | 23.37% | -30.97% | -3.106% | 4.433%
COC(=O)N1CCCC(NC(=O)NCc2csc(C)n2)C1 (stereo not drawn) | 1.373% | -33.09% | -20.09% | 1.921% | -1.02%

Some entries from above, unchanged:

{"compound": "NC(=O)C1CCN(C(=O)c2cc(-n3cnnn3)ccc2Cl)CC1", "CoaBC": 4.43, "Leishmania in macrophages": 4.464, "Pks13 thioesterase": 6.916, "ClpP1P2": -11.79, "TcHisRS": 6.211}
{"compound": "Cc1ccc(N2CC[C@@H]3[C@@H]2CCN3C(=O)c2cscn2)nn1", "CoaBC": -5.906, "ClpP1P2": 0.1709, "TcHisRS": 2.299}
{"compound": "Cc1ccc(-c2cc(N)c(=O)n(CC(=O)NCC3CC3)n2)s1", "CoaBC": -5.833, "Leishmania in macrophages": 29.16, "Pks13 thioesterase": -62.61, "ClpP1P2": -2.33, "TcHisRS": 1.622}
{"compound": "O=C(c1cccnc1)N1CCc2c(COCC3CC3)cncc2C1", "CoaBC": -0.2538, "Leishmania in macrophages": 23.56, "Pks13 thioesterase": -17.65, "ClpP1P2": -1.49, "TcHisRS": 2.956}
{"compound": "Cc1cc(C(=O)NCCN2CCC(C)CC2)nn1C(C)(C)C", "CoaBC": 6.399, "Leishmania in macrophages": -49.52, "Pks13 thioesterase": -8.502, "ClpP1P2": -11.08, "TcHisRS": 0.4975}
{"compound": "COC(=O)c1cccc2nc([C@H]3CCN(Cc4ccccc4C)C3)oc12", "CoaBC": 9.627, "Leishmania in macrophages": 25.72, "Pks13 thioesterase": -15.18, "ClpP1P2": -10.94, "TcHisRS": -2.488}